PMC7819943, “Rice protein-binding microarrays: a tool to detect cis-acting elements near promoter regions in rice”
The list shows a part of the results.

By UniProt entry, the sequences of proteins in these tests, tags left out.
UniProt Q0JBA9, entry or part of it: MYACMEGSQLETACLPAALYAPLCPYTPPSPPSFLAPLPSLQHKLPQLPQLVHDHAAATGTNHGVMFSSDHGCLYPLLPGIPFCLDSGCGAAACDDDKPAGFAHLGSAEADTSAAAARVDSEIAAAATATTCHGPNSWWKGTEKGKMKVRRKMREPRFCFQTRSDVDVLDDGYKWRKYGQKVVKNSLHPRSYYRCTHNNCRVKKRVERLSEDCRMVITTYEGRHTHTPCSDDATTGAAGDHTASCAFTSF

What follows are sequences tested against OsWRKY34 (Oryza sativa, UniProt Q0JBA9 1-250) (assay: protein-binding microarray (RPBM); PBS, 2% BSA, 51.3 ng/ul salmon testes DNA, 50 uM zinc acetate, 200 nM TF, 25 C, 1 h; high values mean tight binding). Details: protein: recombinant; tags: N-terminal polyhistidine and DsRed monomer fusion (pET32a); label: CyDye5-dUTP incorporated in the synthesized complementary strand; 3' TTTTT single-stranded linker to array surface; dsDNA, one strand shown.
Summary of the method: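 Binding signal is defined as the fluorescence intensity of each feature in arbitrary units, read on an Axon 4000B scanner. Transcription factors with N-terminal polyhistidine and DsRed fusions came from E. coli BL21-CodonPlus and were purified on Ni–NTA. They were incubated at 200 nM for 1 h at 25 °C on a custom Agilent array that had been made double-stranded with Cy5-dUTP, with 50 µM zinc acetate present, and the array was washed.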

Row | Sequence | binding signal
1 | TCCACTTCTCCTCCACACTTCACGGCTCCTTCACTCCTCCCGGAGTCACCTAGTGCAG | 8590 fluorescence intensity (a.u.)
2 | GGTTTGTTGCTCCGTGCTTCTACTCTTTCTTCCCCGCAATCGGAGTCACCTAGTGCAG | 8050 fluorescence intensity (a.u.)
3 | AATGCACGGGAGGGTGCCGCCTGGCCTTTCCACCGTCGCTCGGAGTCACCTAGTGCAG | 9200 fluorescence intensity (a.u.)
4 | TTCTGCTTGGCTGTGGTGGTGGCTGTGGTGGTGGGCAAAGCGGAGTCACCTAGTGCAG | 8670 fluorescence intensity (a.u.)
5 | AATTTATTGGGGTGACGTGTATCGGTCGATTAATTTACTTCGGAGTCACCTAGTGCAG | 9420 fluorescence intensity (a.u.)
6 | CCCACCGCAATCTCGTTTCGGCTCTCCGGCCCTCTCCTAGCGGAGTCACCTAGTGCAG | 9940 fluorescence intensity (a.u.)
7 | TGTTGTCAGTACATACTCTGGTTAATCTGCAATTCTGCATCGGAGTCACCTAGTGCAG | 8200 fluorescence intensity (a.u.)
8 | TAGTTATGCCACATGTGTTTATTTTGTTGTCGCACCTATACGGAGTCACCTAGTGCAG | 8720 fluorescence intensity (a.u.)
9 | ACCGCTGCCAGAGAAATTCTGACCCATGCTCATAACACAACGGAGTCACCTAGTGCAG | 9960 fluorescence intensity (a.u.)
10 | GCTGTATATGTCGCCATGTTGGTTCTATGCTCTTATATTTCGGAGTCACCTAGTGCAG | 11500 fluorescence intensity (a.u.)
11 | GTGCCACTCTGTCTCTTCCGTCCATAGCGCCGTCGTCTTCCGGAGTCACCTAGTGCAG | 17300 fluorescence intensity (a.u.)
12 | TCCCTCTTATTCACCGCACCTATCGCCGAGCTCCTCGTCGCGGAGTCACCTAGTGCAG | 10100 fluorescence intensity (a.u.)
13 | GCTTTTCATTTGTTTACACGGATTTATGGCGGTTTGCAGTCGGAGTCACCTAGTGCAG | 8830 fluorescence intensity (a.u.)
14 | TTGCATTACCGGTTTCTCCCGCACATTAACTGATCACACCCGGAGTCACCTAGTGCAG | 8660 fluorescence intensity (a.u.)
15 | CTGGTGGTCGGTTCAGTCGGGCGGGCGGGCGGGCTCACCGCGGAGTCACCTAGTGCAG | 22800 fluorescence intensity (a.u.)
16 | CTGGGTTGCTGGTTCTTTTTCTGCTCTTTTCATTTACAAACGGAGTCACCTAGTGCAG | 13700 fluorescence intensity (a.u.)
17 | CAGTCCTCACACGTTCTCTTCCTCTCTCTCTCTCTCACTCCGGAGTCACCTAGTGCAG | 10400 fluorescence intensity (a.u.)
18 | ATGTTATCATGTATTCACCGTCTCCGGGCCTATGAGCATTCGGAGTCACCTAGTGCAG | 8430 fluorescence intensity (a.u.)
19 | GATGCTTATGATGTCTAGTACGGTATACATGTCAACAAGACGGAGTCACCTAGTGCAG | 8890 fluorescence intensity (a.u.)
20 | TCTCCCATCTTTTATTGCCATTTGTCATTACTGTTCTAGACGGAGTCACCTAGTGCAG | 13800 fluorescence intensity (a.u.)
21 | TTGGCCTCTTGTATACTACCATTTGCAACAATAAAGCTTTCGGAGTCACCTAGTGCAG | 8810 fluorescence intensity (a.u.)

Row | Sequence | binding signal
22 | ATCTCTTCCTCAATCTGCTTATTTCTTCTCTTGTAAGAATCGGAGTCACCTAGTGCAG | 8890 fluorescence intensity (a.u.)
23 | GCCGTCCGTTGACCGCACGCACCGCACGAATCTCGAGGCGCGGAGTCACCTAGTGCAG | 10800 fluorescence intensity (a.u.)
24 | TCTTTTTCTATGCATGTGCGCTTATGGTGGAGTGGTGATACGGAGTCACCTAGTGCAG | 9140 fluorescence intensity (a.u.)
25 | TAGTATGTTTGTAATATCGATATTGGCCTATATATATTTGCGGAGTCACCTAGTGCAG | 9310 fluorescence intensity (a.u.)
26 | CGCCCACTTGACTATTTCGTGGACCCTTCCTGTCTTGTCCCGGAGTCACCTAGTGCAG | 11600 fluorescence intensity (a.u.)
27 | TTTTTTGTGGTTTTCTTATTTGACCCTATTTTTTAAAACTCGGAGTCACCTAGTGCAG | 8160 fluorescence intensity (a.u.)
28 | CGTTCTCGTACGCACTTTGTCCCTACCATTGGTGATTGCTCGGAGTCACCTAGTGCAG | 11900 fluorescence intensity (a.u.)
29 | TTGTTCTTCTTTTTTGGTCTGGTTTTTTTTGTGGTTTCTTCGGAGTCACCTAGTGCAG | 16700 fluorescence intensity (a.u.)
30 | GCATGTGGCTTAAACTTTTTGGTTGGATATTTGCTTGTAACGGAGTCACCTAGTGCAG | 9440 fluorescence intensity (a.u.)
31 | TTTGTTTCTAGCATTTTCAATTTGAGTTTCATTAATTCATCGGAGTCACCTAGTGCAG | 10200 fluorescence intensity (a.u.)
32 | ATCAACCTTTCTAGCTGGCTATCTGTACTTTGATTTATCACGGAGTCACCTAGTGCAG | 13500 fluorescence intensity (a.u.)
33 | CCTCCCGCGGAAGCACACCAACCGCTTGCCGAACGTACCACGGAGTCACCTAGTGCAG | 10800 fluorescence intensity (a.u.)
34 | CACTCTTACCCGACTCTGCCTAACCGTCAGCCCCGTCCTGCGGAGTCACCTAGTGCAG | 11200 fluorescence intensity (a.u.)
35 | AATGTATGTAACTGCATTACACTTGTCCATTTCTCAGTTACGGAGTCACCTAGTGCAG | 10500 fluorescence intensity (a.u.)
36 | TGTTTCTATTCTTTATTTTGGTTTAATACTCCCTCATTCCCGGAGTCACCTAGTGCAG | 10100 fluorescence intensity (a.u.)
37 | TCTTGTTCATTTCTCTCTTGCTCCGGCTCGCCTCGCATCGCGGAGTCACCTAGTGCAG | 8300 fluorescence intensity (a.u.)
38 | TAATAACCGTTTTGATCTAATCCACCTGCTCCCGTCGCGTCGGAGTCACCTAGTGCAG | 9450 fluorescence intensity (a.u.)
39 | AAGTTTAGGTTTTGGGTATACCAACCATTCACACCTCCCTCGGAGTCACCTAGTGCAG | 8420 fluorescence intensity (a.u.)
40 | AGCTTCGTCGCTGCCATATCCATTGTCGTTAACCGTCAACCGGAGTCACCTAGTGCAG | 11300 fluorescence intensity (a.u.)
41 | TCTTTCATAGTTTCATTCATACTTCTTTTCAACTAGCTTTCGGAGTCACCTAGTGCAG | 8400 fluorescence intensity (a.u.)
42 | AACGGTGGGAGTAATGTTTTTCTCGGTTGCAAACAACTTTCGGAGTCACCTAGTGCAG | 8100 fluorescence intensity (a.u.)

Quoted at random: two records from the list.
Row | Sequence | binding signal
23 | GCCGTCCGTTGACCGCACGCACCGCACGAATCTCGAGGCGCGGAGTCACCTAGTGCAG | 10800 fluorescence intensity (a.u.)
22 | ATCTCTTCCTCAATCTGCTTATTTCTTCTCTTGTAAGAATCGGAGTCACCTAGTGCAG | 8890 fluorescence intensity (a.u.)
